Assay results from PubChem BioAssay AID493014 (National Center for Advancing Translational Sciences (NCATS), 2011).
Some of the results follow. Further columns of the screen follow, without active or inactive calls. The list favours compounds with an active or inconclusive main result. The note in brackets gives the kind of curve behind each potency; many fits are weak.

Experiment: qHTS Assay to Find Inhibitors of Chronic Active B-Cell Receptor Signaling
Details: ABC-DLBCL IkBa-CBG/CBR reporter, luminescence ratio (green luciferase fused to IkBa over red control in TMD8 lymphoma cells), 4 h
How it was run: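 Compounds up to 46 uM were incubated four hours with TMD8 cells whose green CBG68 luciferase is fused to IkappaBalpha; red CBR luminescence normalised the signal, and concentration-effect curves were fitted to fusion, red and ratio data.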

[1] = measured here: CBR red luminescence, cell number
[2] = measured here: IkBa-CBG green luminescence

| Structure (SMILES) | AC50 [1] | AC50 [2] |
| --- | --- | --- |
| O=C(O)CCn1cc(/C=C2\NC(=S)N(c3ccccc3)C2=O)c(-c2ccc(Br)cc2)n1 | 0.631 µM [falling, partial curve, poor fit] | – |
| Cc1cc(=O)oc2cc(OCCC[n+]3ccccc3)ccc12 | 5.62 µM [rising, single point] | – |
| C=C1c2cc3c(cc2NC(=S)N1Cc1ccccc1)OCO3 | 25.1 µM [falling, single point] | 15.8 µM [rising, partial curve, poor fit] |
| Cc1cc(=O)[nH]c(N/N=C/C=C/c2ccccc2)n1 | 35.5 µM [falling, single point] | – |
| Cn1c(N)c(C(=O)NCc2ccccc2Cl)sc1=S | 1.3 µM [falling, full curve, poor fit] | – |
| Oc1c(Br)cccc1/C=N/c1ncn[nH]1 | 2 µM [rising, partial curve, poor fit] | – |
| Cc1c(NC(=O)C(C)OC(=O)CC2Sc3ccccc3NC2=O)c(=O)n(-c2ccccc2)n1C (centres undefined) | 35.5 µM [rising, partial curve, poor fit] | – |
| O=C(NC(=S)N1CCN(Cc2ccccc2)CC1)c1ccco1 | – | 25.1 µM [falling, single point] |
| Cc1onc(COc2ccccc2O)c1Br | 6.51 µM [rising, full curve, poor fit] | – |
| Cc1ccc(-c2csc(N3CCC(C(N)=O)(N4CCCCC4)CC3)n2)cc1 | 18.4 µM [falling, single point] | – |
| O=C(Nc1cccc(Cl)c1)Nc1ccc2c(c1)OCO2 | 29.1 µM [falling, single point] | – |
| C(=N\Nc1ccccc1)/c1ccc(N2CCOCC2)cc1 | 3.16 µM [falling, partial curve, poor fit] | – |
| CC1CC1C(=O)OCC(=O)c1c(N)n(C)c(=O)n(C)c1=O (centres undefined) | 0.112 µM [falling, full curve, poor fit] | – |
| Cc1ccc(/C=C/C(=O)N2CCN(Cc3ccccc3)CC2)o1 | 20.6 µM [falling, partial curve] | – |
| CC(C)(C)C(Cn1ccnc1)NC(=O)c1ccc2nc(C3CC3)oc2c1 (centres undefined) | 0.112 µM [falling, full curve, poor fit] | – |
| CC(C)c1ccc(Nc2nc(NCc3ccco3)nc(N3CCOCC3)n2)cc1 | 8.91 µM [rising, partial curve, poor fit] | – |
| COc1ccccc1C(=O)NC(=Nc1nc2ccccc2o1)NC(=O)c1ccccc1OC | 16.4 µM [falling, single point] | – |
| CC(C)/C=N/NC(=O)c1ccc(Cl)cc1 | 0.461 µM [falling, partial curve, poor fit] | – |

Looked up one by one from the list above (2):

| Structure (SMILES) | AC50 [1] | AC50 [2] |
| --- | --- | --- |
| Cc1c(NC(=O)C(C)OC(=O)CC2Sc3ccccc3NC2=O)c(=O)n(-c2ccccc2)n1C (centres undefined) | 35.5 µM [rising, partial curve, poor fit] | – |
| Cc1ccc(-c2csc(N3CCC(C(N)=O)(N4CCCCC4)CC3)n2)cc1 | 18.4 µM [falling, single point] | – |
